PubChem BioAssay AID1224830 | NIAID | 2016

Test: 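Genes whose knock-down alters the TNF-alpha reporter response to LPS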 (primary screen)
Cell system: human THP-1 monocytic leukaemia cells, TNF dual-luciferase reporter clone, PMA-differentiated to macrophage-like cells
Reagent: siRNA pool against human genes, 50 nM
Timing: LPS for 4 h, given about 3 days after siRNA transfection
Challenge: bacterial LPS (TLR4 ligand), 10 ng/ml
Measurement: 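Ratio of firefly to renilla light, scaled to the plate median and expressed as a robust z-score per replicate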
Reading the numbers: TNF reporter robust z-score: higher = stronger TNF reporter response to LPS
Call rule: 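a well is active when its z-score exceeds 2.8 or falls below -1.5; control wells carry no call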
Here is a random part of about 18,000 deposited reagents. About 2,900 of them (16%) count as active. 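Calls are made per well; low scores hint the gene aids the LPS response, high scores that it dampens it.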 A number with no mark means an inactive call. The numbers tell different reagents against one gene apart. Repeated entries: four replicate wells of each siRNA pool. No sequences are given here.

gene | pool no. | TNF reporter robust z-score
RPUSD4 (GeneID 84881) | 1 | -0.72
RPUSD4 (GeneID 84881) | 1 | -1.04
RPUSD4 (GeneID 84881) | 1 | -0.83
RPUSD4 (GeneID 84881) | 1 | -0.95
CCT8 (GeneID 10694) | 1 | 0.39
CCT8 (GeneID 10694) | 1 | 0.28
CCT8 (GeneID 10694) | 1 | -0.94
CCT8 (GeneID 10694) | 1 | 0.4
CCL14 (GeneID 6358) | 1 | -0.67
CCL14 (GeneID 6358) | 1 | 1.68
CCL14 (GeneID 6358) | 1 | 0.08
CCL14 (GeneID 6358) | 1 | 1.29
ANKS4B (GeneID 257629) | 1 | -1.17
ANKS4B (GeneID 257629) | 1 | -0.62
ANKS4B (GeneID 257629) | 1 | -0.45
ANKS4B (GeneID 257629) | 1 | -0.69
RAB33B (GeneID 83452) | 1 | -0.54
RAB33B (GeneID 83452) | 1 | 0.43
RAB33B (GeneID 83452) | 1 | 0.11
RAB33B (GeneID 83452) | 1 | 1.12
IL11RA (GeneID 3590) | 1 | 0.36
IL11RA (GeneID 3590) | 1 | 0.34
IL11RA (GeneID 3590) | 1 | 0.03
IL11RA (GeneID 3590) | 1 | 1.06
IDI2 (GeneID 91734) | 1 | -1.38
IDI2 (GeneID 91734) | 1 | -0.59
IDI2 (GeneID 91734) | 1 | -1.32
IDI2 (GeneID 91734) | 1 | 0.57

Quoted from the listing for reference:
gene | pool no. | TNF reporter robust z-score
ANKS4B (GeneID 257629) | 1 | -0.69
RAB33B (GeneID 83452) | 1 | -0.54
RAB33B (GeneID 83452) | 1 | 0.43
RAB33B (GeneID 83452) | 1 | 0.11
RAB33B (GeneID 83452) | 1 | 1.12
IL11RA (GeneID 3590) | 1 | 0.36
IL11RA (GeneID 3590) | 1 | 0.34

Continued:
gene | pool no. | TNF reporter robust z-score
MSH3 (GeneID 4437) | 1 | -0.1
MSH3 (GeneID 4437) | 1 | 1.78
MSH3 (GeneID 4437) | 1 | 1.29
MSH3 (GeneID 4437) | 1 | 1.24
TSPAN8 (GeneID 7103) | 1 | 0.25
TSPAN8 (GeneID 7103) | 1 | -0.16
TSPAN8 (GeneID 7103) | 1 | 0.27
TSPAN8 (GeneID 7103) | 1 | 0.44
APC2 (GeneID 10297) | 1 | 2.75
APC2 (GeneID 10297) | 1 | 1.94
APC2 (GeneID 10297) | 1 | 2.35
APC2 (GeneID 10297) | 1 | 3 (active)
C14orf39 (GeneID 317761) | 1 | 0.39
C14orf39 (GeneID 317761) | 1 | 1.12
C14orf39 (GeneID 317761) | 1 | -0.08
C14orf39 (GeneID 317761) | 1 | -0.1
ZGRF1 (GeneID 55345) | 1 | 0.45
ZGRF1 (GeneID 55345) | 1 | 1.34
ZGRF1 (GeneID 55345) | 1 | -0.41
ZGRF1 (GeneID 55345) | 1 | 0.68
ZGRF1 (GeneID 55345) | 2 | -0.36
ZGRF1 (GeneID 55345) | 2 | -0.89
ZGRF1 (GeneID 55345) | 2 | -0.76
ZGRF1 (GeneID 55345) | 2 | -0.82
